Where “and” joins values, the source holds several entries; their conditions need not be identical. Identical values can stand only once. This is one part of the list. Each value is one well over the wells without odorant, computed here; the data are noisy.
Columns and labels:
Test in all cases: odorant receptor activation (CRE luciferase / Renilla) (fold of no-odor wells); higher = more activation
Conditions in all cases: 100 µM
OR2Z1 clone 1296 = system: OR2Z1 clone 1296
OR3A1 clone 1288 = system: OR3A1 clone 1288
OR3A2 clone 1286 = system: OR3A2 clone 1286
OR3A3 clone 1549 = system: OR3A3 clone 1549
[1] = system: OR3A4 I42V/S86R/E103Q/I120V/P168T/N175S clone 1550
OR4A15 A257V clone 1216 = system: OR4A15 A257V clone 1216
OR4A16 clone 1518 = system: OR4A16 clone 1518
OR4A4 clone 1134 = system: OR4A4 clone 1134
[2] = system: OR4A47 I104L/V145M clone 1579
OR4A5 clone 1637 = system: OR4A5 clone 1637
OR4B1 clone 1189 = system: OR4B1 clone 1189
OR4C11 clone 1244 = system: OR4C11 clone 1244
OR4C12 V283L clone 1155 = system: OR4C12 V283L clone 1155
OR4C15 clone 1337 = system: OR4C15 clone 1337
OR4C15 clone 1449 = system: OR4C15 clone 1449
[3] = system: OR4C16 V25L/T76A/L259P clone 1237
OR4C3 clone 1284 = system: OR4C3 clone 1284
OR4C3 clone 1480 = system: OR4C3 clone 1480
OR4C46 K288R clone 1483 = system: OR4C46 K288R clone 1483
OR4C5 clone 1307 = system: OR4C5 clone 1307

SMILES	odorant receptor activation (OR2Z1 clone 1296)	odorant receptor activation (OR3A1 clone 1288)	odorant receptor activation (OR3A2 clone 1286)	odorant receptor activation (OR3A3 clone 1549)	odorant receptor activation [1]	odorant receptor activation (OR4A15 A257V clone 1216)	odorant receptor activation (OR4A16 clone 1518)	odorant receptor activation (OR4A4 clone 1134)	odorant receptor activation [2]	odorant receptor activation (OR4A5 clone 1637)	odorant receptor activation (OR4B1 clone 1189)	odorant receptor activation (OR4C11 clone 1244)	odorant receptor activation (OR4C12 V283L clone 1155)	odorant receptor activation (OR4C15 clone 1337)	odorant receptor activation (OR4C15 clone 1449)	odorant receptor activation [3]	odorant receptor activation (OR4C3 clone 1284)	odorant receptor activation (OR4C3 clone 1480)	odorant receptor activation (OR4C46 K288R clone 1483)	odorant receptor activation (OR4C5 clone 1307)
CCCCCOC(C)=O [n-amyl acetate]	0.474	0.876	1.15	1.04	0.979	0.69	1.04 and 0.85	0.474	0.827	1.26	0.714	0.951	0.497	0.318	0.942 and 0.729	1.12	0.511	0.808 and 0.977	0.595 and 0.747	0.31
CC(C)CCC(=O)O [4-methylvaleric acid]	1.09	0.881	0.897	0.715	0.669	0.996	0.902	1.33	0.772	1.01	0.903	1.31	0.804	1.1	0.903	0.895	1.08	0.739	0.985	1.5
O=CCc1ccccc1 [phenyl acetaldehyde]	1.11	1.35	0.744	1.02	0.913	1.12	1.02	1.49	1.78	1.67	0.736	1.14	0.806	1.21	1.59	1.89	1.23	1.33	1.25	1.32
CCCCCC(=O)O [caproic acid]	0.87	1.02	0.623	0.943	0.917	0.952	0.843	1.07	0.862	0.792	1.05	0.892	0.996	0.98	0.142	0.695	0.75	0.86	0.973	0.794
C=CCc1ccc(OC(C)=O)c(OC)c1 [eugenol acetate]	1.29	1.68	1.36	1.7	1.91	1.82	1.72	2.63	1.82	1.78	1.41	1.71	2.02	1.46	1.58	1.28	1.89	1.65	1.58	1.93
COC(=O)c1ccccc1 [methyl benzoate]	0.607	1.33	1.43	–	–	0.741	0.603 and 1.19	0.721	–	–	0.801	0.932	0.911	0.47	1.41 and 0.902	–	0.901	0.96 and 1.14	0.679 and 0.921	0.593
C=C(C)C1CC=CCC1 (configuration not stated) [r-limonene]	–	1.24 and 0.712	0.892 and 0.906	1.12	0.971	1.11 and 0.541	0.837 and 0.918 and 0.871	–	1.15	1.1	0.777 and 0.666	0.958 and 0.518	0.799 and 0.457	–	1.33 and 0.843 and 0.641	1.09	0.788 and 0.484	0.953 and 0.915 and 0.824	1.02 and 0.433 and 0.835	–
COC(=O)c1ccccc1O [methyl salicylate]	0.597	1.06	0.991	0.774	0.919	0.771	0.918	0.741	0.993	0.757	0.761	0.954	0.9	0.954	1.22	0.813	0.835	0.824	1.04	1.05
CCCCCC(C)=O [2-heptanone]	0.799	1.91	1.04	–	–	0.947	1.32 and 0.6	0.866	–	–	0.88	2.8	1.24	1.16	0.882 and 0.605	–	2.36	0.83 and 0.794	0.921 and 0.798	0.782
CCCCCCC=O [heptaldehyde]	0.485 and 0.79 and 1.13	1.03 and 1.15 and 0.833	0.92 and 1.15 and 1.03	0.711	0.805	0.425 and 1.12	–	–	0.587	0.888	0.575 and 0.819	0.782 and 0.832 and 1.16	–	–	1.05 and 0.725 and 0.792	1.37	0.624 and 0.709 and 0.738	–	–	–
CC(C)(C)c1ccc(CCC=O)cc1 [bourgeonal]	0.877	0.924	0.732	–	–	0.715	0.794	0.893	–	–	0.676	0.708	0.745	0.727	0.129	–	0.656	0.916	0.932	0.86
CC1=NC(C)SC1C (configuration not stated)	2.13	1.12	1.09	–	–	1.01	1.17 and 1.01	0.583	–	–	1.23	1.56	0.834	2.63	1.01 and 0.823	–	0.638	0.938 and 1.26	1.24 and 1.28	0.592
CCCCCCCC=O [octyl aldehyde]	0.728	1.06	0.957	0.841	0.873	1.02	1.01	0.977	0.826	0.841	0.765	1.09	1.05	1.21	0.831	0.78	1.3	0.931	1.03	1.2
CCCCCCCCOC(C)=O [octyl acetate]	0.616	1.03	1.09	0.953	0.754	0.984	0.941	0.924	0.95	0.83	0.948	0.978	1.1	1.26	0.963	0.766	1.33	0.729	0.917	1.02
c1ccc(Oc2ccccc2)cc1 [diphenyl ether]	0.851	1.01	0.865	0.836	0.909	1.14	1.15	1.08	0.65	1.1	0.979	0.99	1.02	0.904	1.08	0.829	1.4	0.978	1	1.04
CC12C=CCC1C1CCC3=CC(=O)CCC3(C)C1CC2 (configuration not stated) [androstadienone]	0.875 and 1.03	1.39 and 0.864	1.46 and 1.4	–	–	0.942	0.918 and 1.59	0.764	–	–	0.732	1.01 and 1.27	1.35	1.21 and 1.11	1.04	–	0.618 and 0.873	0.826 and 1.34	1.1 and 1.34	1.15 and 0.891

SMILES	odorant receptor activation (OR2Z1 clone 1296)	odorant receptor activation (OR3A1 clone 1288)	odorant receptor activation (OR3A2 clone 1286)	odorant receptor activation (OR3A3 clone 1549)	odorant receptor activation [1]	odorant receptor activation (OR4A15 A257V clone 1216)	odorant receptor activation (OR4A16 clone 1518)	odorant receptor activation (OR4A4 clone 1134)	odorant receptor activation [2]	odorant receptor activation (OR4A5 clone 1637)	odorant receptor activation (OR4B1 clone 1189)	odorant receptor activation (OR4C11 clone 1244)	odorant receptor activation (OR4C12 V283L clone 1155)	odorant receptor activation (OR4C15 clone 1337)	odorant receptor activation (OR4C15 clone 1449)	odorant receptor activation [3]	odorant receptor activation (OR4C3 clone 1284)	odorant receptor activation (OR4C3 clone 1480)	odorant receptor activation (OR4C46 K288R clone 1483)	odorant receptor activation (OR4C5 clone 1307)
CC1COCc2cc3c(cc21)C(C)(C)C(C)C3(C)C (configuration not stated) [galaxolide]	0.849 and 1.31	1.45 and 2.83	1.29 and 1.28	1.44 and 2.03	0.359 and 0.977	0.874	6.7 and 5.61	0.685	–	–	0.643	–	4.46	1.63 and 1.08	2.92	0.413 and 0.88	–	–	–	1.08 and 2.57
CC12C=CCC1C1CCC3CC(=O)CCC3(C)C1CC2 (configuration not stated) [androstenone]	0.947	1.21	1.31	–	–	5.26	1.18	4.4	–	–	5.44	1.28	7.03	1.19	0.765	–	1.31	0.844	1.1	1.39
CC12CCC(CC1)C(C)(C)O2 [cineole]	0.898	0.735	0.795	0.891	1.08	0.857	0.773	0.888	1.09	0.885	0.849	1.09	0.834	0.878	0.17	0.772	1.09	0.711	0.832	0.975
C=C(C)C1CCC2=CC(=O)CC(C)C2(C)C1 (configuration not stated) [amyl laurate]	–	–	–	1.44	2.23	–	–	–	1.01	1.2	–	–	–	–	–	1.15	–	–	–	–
CC(C)(O)CCCC1=CCC(C=O)CC1 (configuration not stated) [lyral]	–	–	–	0.802	0.983	–	–	–	0.823	1.38	–	–	–	–	–	0.985	–	–	–	–
O=C1CCCCC1 [Cyclohexanone]	0.384	0.985	1.04	–	–	0.831	0.761 and 0.856	0.556	–	–	0.59	0.456	0.641	0.465	0.861 and 0.838	–	0.588	0.9 and 0.921	0.652 and 0.859	0.372
CC(C)C=O [isobutyraldehyde]	1.03 and 0.787	1.34 and 0.977	1.49 and 1.55	0.683	0.708	0.867	0.931 and 0.904	0.79	0.96	0.928	0.898	0.966 and 0.986	1	1.14 and 1.09	0.861	0.874	0.898 and 0.877	0.968 and 1.34	0.99 and 0.989	1.03 and 0.804
COc1cc(C)ccc1O [2-methoxy-4-methylphenol]	0.842	0.666	0.86	0.755	0.667	0.843	0.808	1.7	0.791	1.22	1.12	0.903	1.38	1.06	1.15	1.07	0.844	0.74	0.862	1.07
COc1ccccc1O [guaiacol]	0.916 and 1.25	1.28 and 0.932	1.21 and 1.16	0.621	0.731	0.945	0.692 and 1.11	0.74	0.665	0.915	0.999	0.852 and 1.06	1.05	1 and 1.12	0.975	1.1	0.468 and 0.893	1.1 and 1.39	0.811 and 1.22	1.04 and 0.942
CC(=O)c1ccccc1 [acetophenone]	1.75	3.27	2.35	–	–	1.15	1.04 and 0.901	1.14	–	–	1.03	1.96	1.17	1.33	0.889 and 0.665	–	0.894	1 and 0.919	1.1 and 0.691	0.977
CC=Cc1ccc(O)c(OC)c1 [isoeugenol]	0.988 and 0.951	1.17 and 1.56	1.28 and 1.5	4.09	3.49	1.15	1.72 and 2.35	0.872	4.76	5.63	0.791	1.01 and 1.51	1.74	1.42 and 1.34	1.5	5.54	1.06 and 1.74	0.952 and 2.66	0.918 and 2.16	0.899 and 1.61
C=CCc1ccc(O)c(OC)c1 [eugenol]	0.84 and 1	2.88 and 1.63	–	1.14	1.05	2.21 and 1.7	1.36 and 1.16 and 1.2	3.01 and 1.67	1.06	1.25	1.42 and 1.51	1.91 and 1.47	2.02 and 1.29	1.12 and 1.28	1.76 and 0.834 and 1.38	0.987	2.06 and 1.57	2.07 and 1.86 and 1.1	2.26 and 1.26 and 1.18	4.23 and 1.8
O=C1CCCCCCCCCCCC(=O)OCCO1 [ethylene brassylate]	1.1	1.3	1.1	2.44	1.66	1.92	1.19	1.85	0.825	1.53	1.86	1.49	1.43	1.3	2.06	1.14	1.49	1.38	1.16	1.63
COc1cc(C=O)ccc1O [vanillin]	1.13	0.963	0.8	1.08	1.28	0.915	0.974	1.37	0.434	0.864	0.66	0.979	0.95	1.02	1.05	0.75	1.12	0.978	0.998	1.33
CCCCCCCC=CC=O [2-decenal]	0.962	1.22	1.01	1.22	0.985	0.959	2.04	1.22	0.984	1.34	0.839	1.36	1.27	1.11	0.944	1.42	1.39	1.64	2.06	1.37

— the odorant receptor screen of Mainland et al. (2015)
